Measured values: publication PMC5979558
These are yes or no findings as the source states them, for the method shown. Binding seen in cells or lysates may run through a third protein. A yes stands for co-enrichment or nearness to the bait. Other partners may have been found.

Biological target: His6-tagged HtrA
Experiment: affinity purification with mass spectrometry; His6-HtrA (1.5 uM) as bait on Ni-NTA agarose; same conditions as for ClpBLi-Trap but no ATP in the buffers; L. interrogans lysate; LC-MS-MS/MS; only the target purified

B1: 50S ribosomal protein L19 (protein, UniProt Q72S27 1-138)
chain: MNQLLREVLTPDAERTQNFTVGDTVKVHYKIVESGKERVQIYEGVVISVANEANGKTFTVRRVSYDVGVERIFPLFSPKIAKIELIRKGKVRRAKLYYLRNLAGKAARIKELKGGKALVSEDRKRQQAAAATKSTTTE
In the case of B1, the binding is reported as “binds”.
